Literature values as cited in patent US5320825A, “Serotonin reuptake inhibitors for S.P.E.C.T. imaging” (Trustees of the University of Pennsylvania, priority 1991, dated 1994).

Legend:
[1] = target: serotonin reuptake system (5-HT); details: read-out: Inhibition of monoamine uptake, 5-HT (Ki); cited from earlier work
[2] = target: norepinephrine (NE) reuptake system; details: rat synaptosomes; read-out: Inhibition of monoamine uptake, NE (Ki); cited from earlier work

## CN1Cc2c(N)cccc2C(c2ccccc2)C1 (centres unmarked) [Nomifensine]
[1]
  Ki: 5000 nM
[2]
  Ki: 5 nM
